Results published in PubChem BioAssay AID256 (DTP/NCI, 2004).
The list shows only some results of the screen, not a fair sample: it is rich in T/C values a quarter to a half above the control, in often repeated tests (any T/C) and in doses without a T/C. Other doses and runs of a compound stand elsewhere. T/C is the treated group as % of the vehicle group. Some entries give survivors of the animals treated and no T/C: the source files T/C as zero there, which appears to mark a toxic dose or a test without result, not a measured value. Some doses without a T/C left all or most animals alive at the check, yet need not have been tolerated: survival well below the control is almost never listed, so the zero probably covers shortened survival too. Counts of survivors are from the toxicity check (mostly the fifth day) where no day follows; animals may have died later. Schedule codes are those of the source, taken here to give the interval after Q, in days (D) or hours (H), and the number of doses after X. Some entries were tested several times; the values are given in rising order. For survival time, the PubChem record calls one and a half times the control and up active, and a quarter to a half above the control has no call in these data; cut-offs in other NCI protocols can differ.

Tested on: CD2F1 mice, L1210 leukemia ip, survival T/C
Test: NCI In Vivo Anticancer Drug Screen. Data for tumor model L1210 Leukemia (intraperitoneal) in CD2F1 (CDF1) mice
Details: higher T/C = longer survival
Outline: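 Activity against a transplanted murine tumor was judged by comparing the compound group with a vehicle group. The outcome in the treated animals was divided by that in the controls.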

[1] = T/C endpoint: mean survival time, dose: 400.0 mg/kg/injection, schedule: Q01DX009 (ip), vehicle: water
[2] = T/C endpoint: mean survival time, dose: 200.0 mg/kg/injection, schedule: Q01DX009 (ip), vehicle: saline with Tween-80
[3] = T/C endpoint: mean survival time, dose: 300.0 mg/kg/injection, schedule: Q01DX001 (ip), vehicle: other
[4] = T/C endpoint: mean survival time, dose: 400.0 mg/kg/injection, schedule: Q04DX002 (ip), vehicle: saline
[5] = T/C endpoint: mean survival time, dose: 100.0 mg/kg/injection, schedule: Q01DX009 (ip), vehicle: saline with Tween-80
[6] = T/C endpoint: mean survival time, dose: 400.0 mg/kg/injection, schedule: Q01DX009 (ip), vehicle: saline with Tween-80
[7] = T/C endpoint: mean survival time, dose: 100.0 mg/kg/injection, schedule: Q04DX002 (ip), vehicle: saline with Tween-80
[8] = T/C endpoint: mean survival time, dose: 200.0 mg/kg/injection, schedule: Q04DX002 (ip), vehicle: saline with Tween-80
[9] = T/C endpoint: mean survival time, dose: 400.0 mg/kg/injection, schedule: Q04DX002 (ip), vehicle: saline with Tween-80

O=c1cc(O)cnn1C1OC(CO)C(O)C1O (stereo unspecified)
T/C (T/C endpoint: mean survival time, dose: 200.0 mg/kg/injection, schedule: Q01DX009 (ip), vehicle: water): 132 % of control
T/C [1]: 132 % of control
survivor count [1]: 1 of 6

Cc1ccc(Nc2c3ccccc3nc3ccccc23)cc1
T/C (T/C endpoint: mean survival time, dose: 75.0 mg/kg/injection, schedule: Q04DX003 (ip), vehicle: other): 137 % of control
survivor count (T/C endpoint: mean survival time, dose: 150.0 mg/kg/injection, schedule: Q04DX003 (ip), vehicle: saline with Tween-80): 4 of 6

CCOC(C[N+](C)(C)C)OCC
survivor count [2]: 5 of 6

CC1(C)N=C(N)N=C(N)N1c1ccc(OCCCCNC(=O)Nc2ccc(S(=O)(=O)F)cc2)c(Cl)c1
survivor count (T/C endpoint: mean survival time, dose: 200.0 mg/kg/injection, schedule: Q01DX001 (ip), vehicle: saline with Tween-80): 0 of 6
survivor count (T/C endpoint: mean survival time, dose: 400.0 mg/kg/injection, schedule: Q01DX001 (ip), vehicle: saline with Tween-80): 0 of 6

CCCC(=O)OCc1cc(=O)n(C)c2c3c4c(cc12)c(C)cc(=O)n4CO3
T/C (T/C endpoint: mean survival time, dose: 50.0 mg/kg/injection, schedule: Q01DX009 (ip), vehicle: Klucel (hydroxypropylcellulose) (HPC)): 145 % of control
survivor count (T/C endpoint: mean survival time, dose: 100.0 mg/kg/injection, schedule: Q01DX009 (ip), vehicle: Klucel (hydroxypropylcellulose) (HPC)): 6 of 6

CC1OC(=O)C2(C(C)C)CC12 (stereo unspecified)
survivor count (T/C endpoint: mean survival time, dose: 38.0 mg/kg/injection, schedule: Q01DX001 (ip), vehicle: other): 0 of 6
survivor count (T/C endpoint: mean survival time, dose: 75.0 mg/kg/injection, schedule: Q01DX001 (ip), vehicle: other): 0 of 6
survivor count (T/C endpoint: mean survival time, dose: 150.0 mg/kg/injection, schedule: Q01DX001 (ip), vehicle: other): 0 of 6
survivor count [3]: 0 of 6

COC1C(O)CC(OC2CC(OC3CC(O[C@@H]4C(=O)c5c(cc6cc(OC7CC(OC8CC(O)C(O)C(C)O8)C(O)C(C)O7)c(C)c(O)c6c5O)C[C@H]4[C@H](OC)C(=O)[C@@H](O)[C@@H](C)O)OC(C)C3O)OC(C)C2O)OC1C (stereo partly specified)
survivor count (T/C endpoint: mean survival time, dose: 3.0 mg/kg/injection, schedule: Q01DX009 (ip), vehicle: saline): 2 of 6

Clc1cc(N2CC2)nc(N2CC2)n1
T/C (T/C endpoint: mean survival time, dose: 2.7 mg/kg/injection, schedule: Q01DX009 (ip), vehicle: saline): 131 % of control

CCOc1ccccc1C(=O)OC(CN(CC)CC)c1ccccc1 (stereo unspecified)
survivor count [4]: 2 of 3

COc1ccc(CN(CCO)CCCCCCN(CCO)Cc2ccc(OC)cc2)cc1
survivor count (T/C endpoint: median survival time, dose: 200.0 mg/kg/injection, schedule: Q04DX002 (ip), vehicle: saline): 1 of 3
survivor count (T/C endpoint: median survival time, dose: 400.0 mg/kg/injection, schedule: Q04DX002 (ip), vehicle: saline): 0 of 3

c1ccc2c3c(c4c(c2c1)CN(C1CCCCC1)CO4)OCN(C1CCCCC1)C3
survivor count (T/C endpoint: median survival time, dose: 3.0 mg/kg/injection, schedule: Q01DX009 (ip), vehicle: other): 1 of 6
survivor count (T/C endpoint: median survival time, dose: 3.12 mg/kg/injection, schedule: Q01DX009 (ip), vehicle: other): 0 of 6
survivor count (T/C endpoint: median survival time, dose: 6.25 mg/kg/injection, schedule: Q01DX009 (ip), vehicle: other): 0 of 6
survivor count (T/C endpoint: median survival time, dose: 12.5 mg/kg/injection, schedule: Q01DX009 (ip), vehicle: other): 0 of 6
survivor count (T/C endpoint: median survival time, dose: 25.0 mg/kg/injection, schedule: Q01DX009 (ip), vehicle: other): 0 of 6
survivor count (T/C endpoint: median survival time, dose: 50.0 mg/kg/injection, schedule: Q01DX009 (ip), vehicle: other): 0 of 6

O=[N+]([O-])c1ccc(S(=O)(=O)Cl)c(Cl)c1
survivor count [5]: 3 of 6
survivor count [2]: 2 of 6
survivor count [6]: 0 of 6

CC1(C)C2C3C=CC(C3)C2S1(=O)=O (stereo unspecified)
survivor count (T/C endpoint: mean survival time, dose: 10.0 mg/kg/injection, schedule: Q01DX001 (ip), vehicle: saline): 3 of 6
survivor count (T/C endpoint: mean survival time, dose: 100.0 mg/kg/injection, schedule: Q01DX001 (ip), vehicle: saline): 0 of 6
survivor count (T/C endpoint: mean survival time, dose: 200.0 mg/kg/injection, schedule: Q01DX001 (ip), vehicle: saline): 0 of 6
survivor count (T/C endpoint: mean survival time, dose: 400.0 mg/kg/injection, schedule: Q01DX001 (ip), vehicle: saline): 0 of 6

NC(C(=O)O)c1ccc(CBr)cc1 (stereo unspecified)
survivor count (T/C endpoint: median survival time, dose: 25.0 mg/kg/injection, schedule: Q01DX009 (ip), vehicle: saline with Tween-80): 3 of 6
T/C (T/C endpoint: median survival time, dose: 50.0 mg/kg/injection, schedule: Q01DX009 (ip), vehicle: saline with Tween-80): 135 % of control
survivor count (T/C endpoint: median survival time, dose: 100.0 mg/kg/injection, schedule: Q01DX009 (ip), vehicle: saline with Tween-80): 2 of 6 and 3 of 6
survivor count (T/C endpoint: median survival time, dose: 200.0 mg/kg/injection, schedule: Q01DX009 (ip), vehicle: saline with Tween-80): 0 of 6 and 1 of 6

O=C(Nc1ccc(Br)c2c(NC(=O)c3ccccc3)ccc(Br)c12)c1ccccc1
survivor count [2]: 5 of 6
survivor count [6]: 6 of 6

CC(NC(=O)CCl)C(=O)O (stereo unspecified)
survivor count (T/C endpoint: mean survival time, dose: 400.0 mg/kg/injection, schedule: Q04DX003 (ip), vehicle: saline): 5 of 6

COc1cc(C=C2C(=O)C=CC2=O)ccc1O
survivor count (T/C endpoint: mean survival time, dose: 50.0 mg/kg/injection, schedule: Q04DX002 (ip), vehicle: saline with Tween-80): 1 of 3
survivor count [7]: 0 of 3
survivor count [8]: 0 of 3

CN(C)CCCNc1cccc2c1C(=O)c1cccc(NCCCN(C)C)c1C2=O
survivor count (T/C endpoint: mean survival time, dose: 128.0 mg/kg/injection, schedule: Q01DX009 (ip), vehicle: acid diluted with saline): 1 of 6

O=C(CC(=O)C(F)(F)C(F)(F)C(F)(F)F)C(F)(F)F.O=C(CC(=O)C(F)(F)C(F)(F)C(F)(F)F)C(F)(F)F.[Cu]
survivor count (T/C endpoint: median survival time, dose: 50.0 mg/kg/injection, schedule: Q04DX002 (ip), vehicle: saline with Tween-80): 1 of 3
survivor count (T/C endpoint: median survival time, dose: 100.0 mg/kg/injection, schedule: Q04DX002 (ip), vehicle: saline with Tween-80): 0 of 3
survivor count (T/C endpoint: median survival time, dose: 200.0 mg/kg/injection, schedule: Q04DX002 (ip), vehicle: saline with Tween-80): 0 of 3

COc1ccc(Nc2ccc(C(=C3C=CC(=[N+](C)CCC#N)C=C3)c3ccc(N(C)CCC#N)cc3)cc2)cc1
survivor count [8]: 3 of 3
survivor count [9]: 3 of 3

CN1CC2(c3ccccc3)CN(C)CC(c3ccccc3)(C1)C2=O
survivor count (T/C endpoint: mean survival time, dose: 100.0 mg/kg/injection, schedule: Q04DX003 (ip), vehicle: saline with Tween-80): 1 of 6
survivor count (T/C endpoint: mean survival time, dose: 200.0 mg/kg/injection, schedule: Q04DX003 (ip), vehicle: saline with Tween-80): 0 of 6
survivor count (T/C endpoint: mean survival time, dose: 400.0 mg/kg/injection, schedule: Q04DX003 (ip), vehicle: saline with Tween-80): 0 of 6

CC(=O)C(CN(C)C)C(C)=O
survivor count [3]: 2 of 6

Cc1ccc2c(c1)C(C(F)(F)F)(C(F)(F)F)OC(C(F)(F)F)(C(F)(F)F)N2
survivor count [6]: 0 of 6

[O-][n+]1onc2ccccc21
survivor count [7]: 1 of 3
survivor count [8]: 0 of 3
survivor count [9]: 0 of 3

O=c1ccc2nc3ccccc3sc-2c1
survivor count [5]: 6 of 6
survivor count [2]: 2 of 6

[I][Pt][I].c1ccc([PH+](c2ccccc2)c2ccccc2)cc1.c1ccc([PH+](c2ccccc2)c2ccccc2)cc1
survivor count [8]: 3 of 3

CC(N)CC(C)N (stereo unspecified)
survivor count [4]: 0 of 3

CN(C)N=Nc1ccc(Cl)cc1
survivor count (T/C endpoint: mean survival time, dose: 177.0 mg/kg/injection, schedule: Q01DX009 (ip), vehicle: Klucel (hydroxypropylcellulose) (HPC)): 4 of 6
survivor count (T/C endpoint: mean survival time, dose: 266.0 mg/kg/injection, schedule: Q01DX009 (ip), vehicle: Klucel (hydroxypropylcellulose) (HPC)): 0 of 6
survivor count (T/C endpoint: mean survival time, dose: 400.0 mg/kg/injection, schedule: Q01DX009 (ip), vehicle: Klucel (hydroxypropylcellulose) (HPC)): 0 of 6

CC(=O)Nc1ncc2ccccc2c1-c1ccc(NC(=O)CCN(CCCl)CCCl)cc1
survivor count (T/C endpoint: mean survival time, dose: 50.0 mg/kg/injection, schedule: Q04DX003 (ip), vehicle: other): 6 of 6
survivor count (T/C endpoint: mean survival time, dose: 100.0 mg/kg/injection, schedule: Q04DX003 (ip), vehicle: other): 6 of 6

Cc1cc(NCCN(C(C)C)C(C)C)nc(Nc2nc3ccc(Cl)cc3[nH]2)n1
survivor count (T/C endpoint: mean survival time, dose: 3.13 mg/kg/injection, schedule: Q01DX009 (ip), vehicle: saline with Tween-80): 6 of 6
